From PubChem BioAssay AID1347076 (National Center for Advancing Translational Sciences (NCATS), 2019)
About 13,000 (3.2%) of roughly 400,000 compounds were called active. This list was built around the results that the source calls inconclusive (neither active nor inactive); the mix of calls is not that of the screen. The call rests on the fitted dose curve; in most records, active means well fitted cell-killing curve with a large enough effect; inconclusive means small, poorly fitted or top-dose-only effect, or effect the other way; inactive means flat fitted curve, though single readings scatter. Potencies of inconclusive entries are doubtful fits and often do not repeat.

Assay: qHTS assay for MDR1-selective chemotherapeutics: Primary screen using the drug-selected MDR subline cells KB-V1; further: nearly all actives have a fitted effect of over 60% in size
Conditions: KB-V1 MDR cells viability, CellTiter-Glo, 72 h; activity change, negative = cytotoxicity: at 46.1 µM (top of the series)
Outline: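 Compound-treated KB-V1 multidrug-resistant cells, 72 h, 37 degrees C; viability by CellTiter-Glo. Fitted qHTS curves give the values.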
On the % scale 0 is the no-effect control and ±100 the full control effect; potency means the concentration at half of the fitted maximal effect.

Structure (SMILES) | activity change, negative = cytotoxicity | Potency
CC1CCCN(S(=O)(=O)c2ccc3c(c2)c(=O)nc2ccc(Cl)cn23)C1 (stereo not drawn) | inactive: -10.1% | –
Cc1ccc(N2C(=O)CSC2c2cccnc2)c(Cl)c1 (stereo not drawn) | – | inconclusive: 29.1 µM [cytotoxic, single point]
C=CCn1c(COc2ccccc2)nnc1SC(C)C(=O)N/N=C/c1cc(Cl)ccc1O (stereo not drawn) | inactive: -20.4% | –
CCOc1ccccc1C(=O)NCC(=O)O | – | inconclusive: 7.31 µM [rising, partial curve, poor fit]
Cc1ccc(OCC(=O)Nc2ccc(C)c(S(=O)(=O)N3CCCCCC3)c2)c([N+](=O)[O-])n1 | – | inconclusive: 10.3 µM [cytotoxic, partial curve, poor fit]
Cc1ccc(CN2C(=O)C(Cc3ccccc3)Nc3ncnc(N4CCN(c5ccccc5)CC4)c32)cc1 (stereo not drawn) | – | inconclusive: 13 µM [cytotoxic, partial curve, poor fit]
Cc1c(C(=O)Nc2ccc(-c3nnc4n3CCCCC4)cc2)oc2c1ccc1ccccc12 | – | inconclusive: 18.4 µM [cytotoxic, single point]
O=c1nc(SCc2ccccc2Cl)nc(-c2ccc(Cl)cc2)[nH]1 | inactive: 5.71% | –
Cc1nc(NCc2ccccc2)[nH]c(=O)c1CCC(C)C | – | inconclusive: 29.1 µM [cytotoxic, single point]
O=C(NCCc1ccc(C(F)(F)F)cc1)C1CCC(=O)N(CCCN2CCCC2=O)C1 (stereo not drawn) | – | inconclusive: 29.1 µM [rising, single point]
Brc1ccc2c(c1)CNc1c(ncnc1N1CCOCC1)O2 | – | inconclusive: 18.4 µM [cytotoxic, single point]
COc1ccc(OC)c(/C=C/C(=O)c2ccc(Cl)cc2)c1 | – | inconclusive: 29.1 µM [cytotoxic, single point]
S=c1[nH]nc(-c2ccccc2)n1/N=C/c1ccc(Cl)cc1 | inactive: 8.73% | –
COC(=O)CS(=O)(=O)c1cc([N+](=O)[O-])ccc1NC(=O)OC | inactive: -1.17% | –
CC(=O)c1sc2nc(-c3ccco3)ccc2c1N | – | inconclusive: 32.6 µM [cytotoxic, single point]
O=C(Nc1nnc(-c2ccccc2)s1)c1ccccc1F | inactive: 3.5% | –
CCOc1ccccc1NC(=O)Cc1coc2c(C)c(C)ccc12 | – | inconclusive: 29.1 µM [cytotoxic, single point]
Cc1ccc(S(=O)(=O)N2CCN(CC(=O)N/N=C/C=C/c3ccccc3)CC2)cc1 | – | inconclusive: 10.3 µM [cytotoxic, partial curve]
O=[N+]([O-])c1ccc2nc(/C=C/c3ccc(Cl)cc3)[nH]c2c1 | – | inconclusive: 16.4 µM [cytotoxic, single point]
O=C(Oc1ccccc1C(=O)Nc1ccccc1)c1ccccc1Br | – | active: 16.4 µM
CC(C(=O)NCc1ccccc1)N1C(=O)c2ccccc2C1=O (stereo not drawn) | inconclusive: 6.59% | –
CCOC(=O)C(C)Sc1nc(N2CCOCC2)c2c(c1C#N)CC(C)(C)OC2 (stereo not drawn) | – | inconclusive: 6.51 µM [cytotoxic, partial curve]
CC1(C)Cc2c(C#N)c(NCCc3ccccc3)nc(-c3ccco3)c2CO1 | – | inconclusive: 29.1 µM [cytotoxic, single point]

Structure (SMILES) | activity change, negative = cytotoxicity | Potency
Cc1cccc(N2CCN(C(=O)c3cc4c(=O)n(C)c5ccccc5c4n3C)CC2C)c1 (stereo not drawn) | – | inconclusive: 20.6 µM [cytotoxic, single point]
N#C/C(=C\c1ccc(F)cc1)C(=O)NCC1CCCO1 (stereo not drawn) | – | inconclusive: 16.4 µM [rising, partial curve]
CCOC(=O)CSc1nnc2cc(C)c3ccccc3n12 | – | inconclusive: 29.1 µM [rising, single point]
O=C(NCC(c1ccco1)N1CCCCC1)c1cccc(NS(=O)(=O)c2ccc(Br)cc2)c1 (stereo not drawn) | – | inconclusive: 7.31 µM [cytotoxic, partial curve]
CCc1noc(C)c1C(=O)N1CCCC(N2CCN(c3ccc(F)cc3)CC2)C1 (stereo not drawn) | – | inconclusive: 8.2 µM [cytotoxic, partial curve, poor fit]
OC(c1ccco1)c1nc(-c2ccc(F)c(Cl)c2)cs1 (stereo not drawn) | inactive: 3.14% | –
CC(NC(=O)c1ccccc1)C(=O)N/N=C/c1ccc(O)cc1 (stereo not drawn) | – | inconclusive: 7.31 µM [rising, partial curve, poor fit]
COc1cc(CCC(=O)N2CCN(c3cccc(C)c3C)CC2)cc(OC)c1OC | – | inconclusive: 32.6 µM [cytotoxic, single point]
CCCCCCCCCCOC(=O)NC1CCS(=O)(=O)C1 (stereo not drawn) | – | inconclusive: 29.1 µM [cytotoxic, single point]
COc1ccc(C2CC(c3ccccc3)=NN2C(=O)COC(=O)C2CC2)cc1 (stereo not drawn) | – | inconclusive: 20.6 µM [cytotoxic, partial curve, poor fit]
O=S(=O)(NC(CO)Cc1ccccc1)c1cc(Cl)ccc1F (stereo not drawn) | – | inconclusive: 29.1 µM [rising, single point]
CCN(CC)CCN(C)c1ccc(/C=C/c2ccnc3ccccc23)cc1 | – | inconclusive: 14.6 µM [cytotoxic, partial curve]
CCOC(=O)C1CCN(c2c(C(=O)c3ccc(OCC)cc3)cnc3ccc(OC)cc23)CC1 | – | inconclusive: 8.2 µM [cytotoxic, partial curve, poor fit]
COc1ccc(OCC(=O)Nc2ccc(NC(=O)c3ccccc3Cl)c(OC)c2)cc1 | – | inconclusive: 10.3 µM [rising, partial curve]
CC(=O)c1cc(C(=O)c2ccccc2)sc1Nc1ccccc1 | – | inconclusive: 8.2 µM [cytotoxic, partial curve]
COc1ccc(CCNc2nc(-c3ccc(C)cc3)cc(C(F)F)n2)cc1OC | inactive: 25.3% | –
CC(C)c1ccc2c(c1)CCC1C(C)(CN)CCCC21C (stereo not drawn) | – | inconclusive: 29.1 µM [cytotoxic, single point]
CCCCn1c(=O)[nH]c(=O)c2c1nc(-c1ccc(OC)c(Br)c1)n2CC(C)C | – | inconclusive: 32.6 µM [cytotoxic, single point]
O=C(Nc1cc(Cl)ccc1O)C1CC(c2ccccc2O)=NO1 (stereo not drawn) | – | inconclusive: 10.3 µM [cytotoxic, partial curve, poor fit]
CCOc1ccc(Br)cc1S(=O)(=O)Nc1ccc(NC(=O)c2ccccc2F)cc1 | – | inconclusive: 23.1 µM [cytotoxic, partial curve]
Cc1ccccc1-n1cc(C(=O)c2cc(Cl)ccc2O)cc(C#N)c1=O | – | active: 14.6 µM
Cc1c(Cl)cccc1NC(=O)CC(c1cccs1)N1Cc2ccccc2C1=O (stereo not drawn) | – | inconclusive: 23.1 µM [cytotoxic, partial curve, poor fit]
NC(=O)COC(=O)CNC(=O)c1sc2ccccc2c1Cl | – | inconclusive: 29.1 µM [rising, partial curve, poor fit]

Structure (SMILES) | activity change, negative = cytotoxicity | Potency
CCCCCn1cnc2sc(-c3ccccc3)cc2c1=O | – | inconclusive: 29.1 µM [cytotoxic, single point]
CC(NC(=O)CSc1n[nH]c(-c2ccccc2Cl)n1)c1nc2ccccc2n1C (stereo not drawn) | inactive: 9.09% | –
C=Cc1ccc(Cn2c(=O)n(C)c(=O)c3sccc32)cc1 | – | inconclusive: 23.1 µM [cytotoxic, single point]
COc1cccc(CCN2C(=O)CCC3=C2CCC3=O)c1 | inactive: 6.37% | –
N#C/C(=C\c1ccccn1)c1ccccn1 | inactive: -9.52% | –
Cc1nc2c(C(=O)NCc3ccccc3Cl)c[nH]n2c(=O)c1Cc1cccc(Cl)c1 | – | inconclusive: 8.2 µM [rising, partial curve]
CCOC(=O)N1CCN(C(=O)CSc2nnc(-c3cccc(OC)c3)o2)CC1 | inactive: -3.89% | –
CCN1CCN(c2ncc(C(=O)N3CCCc4ccccc43)c3ccccc23)CC1 | inactive: 0% | –
COc1c(C)cc(S(=O)(=O)Nc2cccc(-c3ccc(N4CCOCC4)nn3)c2)c(C)c1C | inactive: -4.07% | –
COc1cc(/C=C/C(=O)OCC(=O)N(C)CC(=O)Nc2ccc(F)cc2)ccc1OC(F)F | – | inconclusive: 0.082 µM [rising, full curve]
CC(CCc1ccccc1)NC(=S)NC(=O)c1ccco1 (stereo not drawn) | – | inconclusive: 29.1 µM [cytotoxic, single point]
CN(CCOCCOc1ccc(Cl)cc1Br)Cc1ccccc1 | – | inconclusive: 20.6 µM [cytotoxic, single point]
COc1ccc(C)cc1S(=O)(=O)N(CC(=O)NC1CCCC1)c1ccc(F)cc1 | – | inconclusive: 4.61 µM [cytotoxic, partial curve]
O=C(CN1CCN(Cc2ccccc2Cl)CC1)N/N=C/c1ccco1 | – | inconclusive: 5.17 µM [cytotoxic, partial curve]
O=C(Nc1nc(-c2nc3ccccc3s2)cs1)c1ccc(S(=O)(=O)N2CCOCC2)cc1 | – | active: 4.61 µM
COc1ccc(-c2ccc3c(=O)cc(-c4ccsc4)oc3c2)cn1 | inactive: -2.65% | –
CCOC(=O)c1c(C)[nH]c(C)c1C(=O)Cn1nnc(-c2ccccc2C)n1 | – | active: 16.4 µM
CC(C)[C@H](Nc1ccc(S(=O)(=O)N2CCOCC2)cc1[N+](=O)[O-])C(=O)OCC(=O)N(C(C)C)C(C)C | – | inconclusive: 6.51 µM [cytotoxic, partial curve]
COc1ccc(-c2cccc(C3CC=CC4C3C(=O)N(Cc3ccccc3)C4c3ccc4ccccc4c3)c2)cc1 (stereo not drawn) | inactive: 7.84% | –
CN(CC(=O)N1CCN(c2ccccn2)CC1)S(=O)(=O)c1ccc(Cl)cc1 | – | inconclusive: 11.6 µM [cytotoxic, partial curve]
COc1cccc(-c2cnc3c(NC(C)=O)cc(-c4cc(F)ccc4OC)cn23)c1 | – | active: 7.31 µM
COc1ccc2c(c1)cc(CNc1ccc(OC)c(OC)c1)c(=O)n2CC(=O)Nc1ccc(F)cc1 | inactive: -23.2% | –
